# Test results reported in the supplement of paper PMC12067093, “Discovery and optimisation of a covalent ligand for TRIM25 and its application to targeted protein ubiquitination” (Chemical Science, 2025).
# The chains behind the UniProt entries cited, without tags or fusion partners. Where a name states a change or a piece, a line headed by the entry shows the natural chain unless it says otherwise.
# UniProt Q8N302: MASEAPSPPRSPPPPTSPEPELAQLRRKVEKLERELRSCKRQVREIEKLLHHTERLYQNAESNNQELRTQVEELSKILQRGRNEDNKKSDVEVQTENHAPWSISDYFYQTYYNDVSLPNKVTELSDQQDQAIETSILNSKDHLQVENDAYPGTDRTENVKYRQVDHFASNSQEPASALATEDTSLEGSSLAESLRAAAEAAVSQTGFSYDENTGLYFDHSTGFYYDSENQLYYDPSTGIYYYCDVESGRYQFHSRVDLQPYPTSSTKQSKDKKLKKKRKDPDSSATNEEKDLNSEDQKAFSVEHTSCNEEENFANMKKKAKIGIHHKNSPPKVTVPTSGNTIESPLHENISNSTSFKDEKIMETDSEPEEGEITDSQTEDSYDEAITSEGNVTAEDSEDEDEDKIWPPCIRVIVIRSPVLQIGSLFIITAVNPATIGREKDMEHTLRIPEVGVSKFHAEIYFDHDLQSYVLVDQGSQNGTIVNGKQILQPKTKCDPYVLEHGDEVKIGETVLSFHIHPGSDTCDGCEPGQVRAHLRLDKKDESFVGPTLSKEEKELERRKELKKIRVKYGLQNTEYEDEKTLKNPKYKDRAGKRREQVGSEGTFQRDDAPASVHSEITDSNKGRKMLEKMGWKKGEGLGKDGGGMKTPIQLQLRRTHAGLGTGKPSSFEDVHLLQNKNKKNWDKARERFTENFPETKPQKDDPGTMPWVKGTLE
# UniProt O60488: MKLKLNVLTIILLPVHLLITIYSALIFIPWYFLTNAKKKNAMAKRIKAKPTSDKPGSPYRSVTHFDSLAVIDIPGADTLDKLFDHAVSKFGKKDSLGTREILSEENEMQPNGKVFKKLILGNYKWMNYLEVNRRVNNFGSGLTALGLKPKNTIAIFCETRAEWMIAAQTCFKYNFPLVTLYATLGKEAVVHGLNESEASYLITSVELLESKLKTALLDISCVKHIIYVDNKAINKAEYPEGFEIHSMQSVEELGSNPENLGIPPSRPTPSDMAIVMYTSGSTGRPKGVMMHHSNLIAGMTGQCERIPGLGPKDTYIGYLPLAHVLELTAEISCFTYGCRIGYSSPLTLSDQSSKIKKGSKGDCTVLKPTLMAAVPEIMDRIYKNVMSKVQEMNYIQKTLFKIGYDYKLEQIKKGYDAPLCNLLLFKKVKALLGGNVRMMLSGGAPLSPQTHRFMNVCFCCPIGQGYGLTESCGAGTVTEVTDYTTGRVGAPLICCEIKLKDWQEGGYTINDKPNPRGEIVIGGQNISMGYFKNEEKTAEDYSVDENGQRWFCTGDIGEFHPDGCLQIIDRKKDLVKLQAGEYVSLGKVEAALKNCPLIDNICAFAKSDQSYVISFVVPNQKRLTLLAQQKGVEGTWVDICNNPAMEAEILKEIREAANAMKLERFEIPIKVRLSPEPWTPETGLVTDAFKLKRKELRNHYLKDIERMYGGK
# UniProt P55265: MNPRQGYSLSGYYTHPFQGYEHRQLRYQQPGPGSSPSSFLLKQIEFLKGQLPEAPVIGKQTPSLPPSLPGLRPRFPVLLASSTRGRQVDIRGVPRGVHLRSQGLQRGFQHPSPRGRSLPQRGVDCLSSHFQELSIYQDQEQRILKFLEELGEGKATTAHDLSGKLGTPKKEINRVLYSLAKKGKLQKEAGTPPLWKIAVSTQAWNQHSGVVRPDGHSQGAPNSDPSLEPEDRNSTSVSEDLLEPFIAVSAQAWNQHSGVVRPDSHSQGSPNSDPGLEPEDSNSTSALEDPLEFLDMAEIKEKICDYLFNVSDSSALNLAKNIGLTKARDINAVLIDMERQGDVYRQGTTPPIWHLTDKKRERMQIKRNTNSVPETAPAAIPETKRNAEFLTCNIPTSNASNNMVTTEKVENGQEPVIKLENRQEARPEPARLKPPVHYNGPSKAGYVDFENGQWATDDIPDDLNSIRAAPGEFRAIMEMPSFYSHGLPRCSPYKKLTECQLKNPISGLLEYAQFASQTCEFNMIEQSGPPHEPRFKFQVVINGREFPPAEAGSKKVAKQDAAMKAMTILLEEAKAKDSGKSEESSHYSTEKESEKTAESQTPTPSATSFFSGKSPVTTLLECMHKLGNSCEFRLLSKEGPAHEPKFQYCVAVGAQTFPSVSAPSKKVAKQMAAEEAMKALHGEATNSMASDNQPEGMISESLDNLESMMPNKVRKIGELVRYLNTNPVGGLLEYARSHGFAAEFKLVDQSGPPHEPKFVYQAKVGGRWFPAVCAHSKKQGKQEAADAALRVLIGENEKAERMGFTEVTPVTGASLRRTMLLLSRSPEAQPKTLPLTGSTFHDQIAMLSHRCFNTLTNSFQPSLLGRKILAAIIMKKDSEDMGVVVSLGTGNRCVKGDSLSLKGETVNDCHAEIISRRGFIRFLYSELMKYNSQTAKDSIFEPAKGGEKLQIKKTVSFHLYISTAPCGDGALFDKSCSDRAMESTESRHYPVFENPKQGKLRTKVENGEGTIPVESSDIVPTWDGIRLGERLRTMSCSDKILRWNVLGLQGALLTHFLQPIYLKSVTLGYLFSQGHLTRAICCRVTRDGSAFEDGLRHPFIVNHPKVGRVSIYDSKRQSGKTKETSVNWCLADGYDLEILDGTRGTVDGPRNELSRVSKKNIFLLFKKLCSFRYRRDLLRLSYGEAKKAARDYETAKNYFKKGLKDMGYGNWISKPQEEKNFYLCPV
# UniProt O95573: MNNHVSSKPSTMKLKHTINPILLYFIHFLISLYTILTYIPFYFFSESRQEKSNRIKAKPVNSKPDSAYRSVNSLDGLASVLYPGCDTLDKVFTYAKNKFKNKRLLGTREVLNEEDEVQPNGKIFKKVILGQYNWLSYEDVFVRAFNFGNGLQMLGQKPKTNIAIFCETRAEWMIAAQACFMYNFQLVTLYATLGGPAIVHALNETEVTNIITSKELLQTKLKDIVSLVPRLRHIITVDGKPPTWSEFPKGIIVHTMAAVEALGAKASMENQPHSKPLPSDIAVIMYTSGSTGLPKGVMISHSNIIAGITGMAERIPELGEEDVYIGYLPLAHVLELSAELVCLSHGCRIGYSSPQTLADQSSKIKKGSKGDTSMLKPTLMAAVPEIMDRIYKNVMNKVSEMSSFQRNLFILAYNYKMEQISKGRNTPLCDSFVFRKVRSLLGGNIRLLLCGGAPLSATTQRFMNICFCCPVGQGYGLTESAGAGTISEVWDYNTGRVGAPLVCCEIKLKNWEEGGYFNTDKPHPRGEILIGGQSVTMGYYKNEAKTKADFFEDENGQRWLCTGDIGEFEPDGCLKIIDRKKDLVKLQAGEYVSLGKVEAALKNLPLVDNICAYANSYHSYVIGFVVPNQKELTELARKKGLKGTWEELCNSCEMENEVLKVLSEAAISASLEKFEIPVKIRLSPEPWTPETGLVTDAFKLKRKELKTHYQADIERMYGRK
# UniProt Q9BRR6: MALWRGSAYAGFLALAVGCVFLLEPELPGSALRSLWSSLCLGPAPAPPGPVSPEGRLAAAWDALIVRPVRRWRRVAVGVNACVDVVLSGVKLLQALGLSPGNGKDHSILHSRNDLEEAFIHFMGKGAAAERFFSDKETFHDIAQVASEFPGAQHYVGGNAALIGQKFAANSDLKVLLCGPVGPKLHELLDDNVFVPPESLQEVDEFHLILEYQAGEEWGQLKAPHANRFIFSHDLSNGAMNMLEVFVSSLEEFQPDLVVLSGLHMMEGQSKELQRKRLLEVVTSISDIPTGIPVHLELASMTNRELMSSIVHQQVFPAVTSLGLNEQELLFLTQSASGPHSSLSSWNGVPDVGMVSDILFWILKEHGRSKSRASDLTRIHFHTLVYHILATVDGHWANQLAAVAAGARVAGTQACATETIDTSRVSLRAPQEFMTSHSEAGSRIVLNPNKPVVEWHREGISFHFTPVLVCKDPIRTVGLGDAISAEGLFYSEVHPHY
# UniProt Q9H2P0: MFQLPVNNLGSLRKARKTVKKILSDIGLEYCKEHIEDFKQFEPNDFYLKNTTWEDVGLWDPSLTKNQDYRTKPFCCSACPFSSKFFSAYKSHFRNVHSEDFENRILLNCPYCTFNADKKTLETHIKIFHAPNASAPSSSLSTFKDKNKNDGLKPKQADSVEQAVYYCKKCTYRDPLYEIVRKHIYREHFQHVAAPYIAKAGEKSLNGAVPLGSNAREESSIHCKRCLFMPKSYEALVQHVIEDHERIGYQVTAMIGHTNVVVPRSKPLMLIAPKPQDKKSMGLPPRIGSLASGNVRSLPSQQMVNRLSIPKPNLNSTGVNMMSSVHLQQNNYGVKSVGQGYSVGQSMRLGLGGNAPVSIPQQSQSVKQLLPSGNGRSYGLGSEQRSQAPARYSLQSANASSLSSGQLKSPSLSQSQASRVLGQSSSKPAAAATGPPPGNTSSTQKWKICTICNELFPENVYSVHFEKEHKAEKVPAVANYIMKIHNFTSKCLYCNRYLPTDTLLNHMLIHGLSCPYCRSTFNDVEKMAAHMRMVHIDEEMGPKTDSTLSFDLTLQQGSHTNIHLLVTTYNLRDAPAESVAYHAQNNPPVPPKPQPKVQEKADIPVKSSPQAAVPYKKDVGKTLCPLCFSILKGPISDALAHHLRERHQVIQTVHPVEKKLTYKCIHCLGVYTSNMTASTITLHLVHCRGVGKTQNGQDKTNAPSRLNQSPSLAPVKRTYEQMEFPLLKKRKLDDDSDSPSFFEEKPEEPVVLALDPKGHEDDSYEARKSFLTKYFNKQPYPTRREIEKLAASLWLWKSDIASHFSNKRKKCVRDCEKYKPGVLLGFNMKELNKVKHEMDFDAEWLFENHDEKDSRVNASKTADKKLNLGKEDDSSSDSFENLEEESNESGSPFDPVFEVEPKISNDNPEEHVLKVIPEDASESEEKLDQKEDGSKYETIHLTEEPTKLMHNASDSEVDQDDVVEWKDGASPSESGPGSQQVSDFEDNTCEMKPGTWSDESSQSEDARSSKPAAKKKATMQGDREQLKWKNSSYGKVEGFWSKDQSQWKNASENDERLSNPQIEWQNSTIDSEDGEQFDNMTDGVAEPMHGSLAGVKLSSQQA
# UniProt Q96CM8: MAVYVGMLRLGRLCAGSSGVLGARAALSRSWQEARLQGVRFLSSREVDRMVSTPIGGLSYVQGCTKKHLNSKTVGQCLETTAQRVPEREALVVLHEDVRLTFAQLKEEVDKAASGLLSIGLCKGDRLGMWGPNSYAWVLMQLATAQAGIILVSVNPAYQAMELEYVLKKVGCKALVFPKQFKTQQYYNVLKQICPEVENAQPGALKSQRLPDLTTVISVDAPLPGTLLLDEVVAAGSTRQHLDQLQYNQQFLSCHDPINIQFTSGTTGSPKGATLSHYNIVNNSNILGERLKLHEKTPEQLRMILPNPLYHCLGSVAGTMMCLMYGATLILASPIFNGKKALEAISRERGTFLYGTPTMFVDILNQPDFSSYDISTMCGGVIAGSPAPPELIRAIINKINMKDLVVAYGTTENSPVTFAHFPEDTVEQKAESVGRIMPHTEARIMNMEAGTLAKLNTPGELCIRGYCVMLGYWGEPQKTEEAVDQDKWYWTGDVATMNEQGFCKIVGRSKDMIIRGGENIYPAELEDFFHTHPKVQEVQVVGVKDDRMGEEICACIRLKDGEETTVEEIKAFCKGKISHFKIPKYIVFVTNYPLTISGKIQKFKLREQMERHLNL
# UniProt O43707, whole entry, looked up: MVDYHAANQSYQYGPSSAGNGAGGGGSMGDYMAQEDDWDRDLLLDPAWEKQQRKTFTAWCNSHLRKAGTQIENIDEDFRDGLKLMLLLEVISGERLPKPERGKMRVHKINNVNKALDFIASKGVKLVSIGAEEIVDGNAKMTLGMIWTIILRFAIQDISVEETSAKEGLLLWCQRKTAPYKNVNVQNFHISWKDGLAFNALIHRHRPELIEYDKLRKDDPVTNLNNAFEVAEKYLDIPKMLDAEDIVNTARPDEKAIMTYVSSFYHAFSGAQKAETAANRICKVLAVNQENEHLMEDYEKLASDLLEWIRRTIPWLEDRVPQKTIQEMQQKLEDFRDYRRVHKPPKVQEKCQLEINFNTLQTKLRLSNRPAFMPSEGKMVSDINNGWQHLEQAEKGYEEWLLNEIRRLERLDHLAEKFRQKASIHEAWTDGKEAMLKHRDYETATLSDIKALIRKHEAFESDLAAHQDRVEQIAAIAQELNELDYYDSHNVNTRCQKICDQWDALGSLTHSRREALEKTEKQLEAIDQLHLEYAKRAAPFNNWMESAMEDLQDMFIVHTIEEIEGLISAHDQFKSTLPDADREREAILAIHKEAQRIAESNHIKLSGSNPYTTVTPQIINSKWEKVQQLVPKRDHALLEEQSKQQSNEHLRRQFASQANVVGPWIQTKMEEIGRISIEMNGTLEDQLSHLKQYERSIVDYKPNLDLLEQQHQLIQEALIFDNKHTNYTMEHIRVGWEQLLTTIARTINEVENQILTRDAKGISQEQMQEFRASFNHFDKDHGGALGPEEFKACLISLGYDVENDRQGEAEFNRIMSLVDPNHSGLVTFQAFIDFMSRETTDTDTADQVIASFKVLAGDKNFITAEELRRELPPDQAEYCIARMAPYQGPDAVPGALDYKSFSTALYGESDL
# The list shows a part of the results.
# Compound: CC1Cc2ccccc2N1C(=O)C1CCCN(C1)C(=O)CCl (mixture of isomers) [TRIM25 ligand 11 (diastereomer mixture)]
# Experiment: probe-labelled cysteine peptide fold change vs DMSO (competition) (log2 fold change); higher = less target engagement (more negative = stronger competition)
# Settings: THP-1, incubation time: 4 h
# 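Also: competitive chemoproteomic profiling in live THP-1 cells with an iodoacetamide desthiobiotin (IA-DTB) probe, comparing probe-labelled peptide intensities in compound-treated cells against DMSO-treated controls.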
Target,probe-labelled cysteine peptide fold change (10 µM),probe-labelled cysteine peptide fold change (50 µM)
AGGF1_Q8N302_307_AFSVEHTSCNEEENFANMK (UniProt Q8N302),0.149,-0.0159
ACSL4_O60488_363_GDCTVLKPTLMAAVPEIMDR (UniProt O60488),0.161,0.115
ACTG1_P63261_17_MEEEIAALVIDNGSGMCK (UniProt P63261),0.286,-0.0679
ADAR_P55265_909_GDSLSLKGETVNDCHAEIISR (UniProt P55265),-0.336,-0.181
ACTR10_Q9NZ32_388_IPDWCSLNNPPLEMMFDVGK (UniProt Q9NZ32),0.247,-0.0923
AFF4_Q9UHB7_338_EMTHSWPPPLTAIHTPCK (UniProt Q9UHB7),-0.174,-0.19
ACSL4_O60488_552_WFCTGDIGEFHPDGCLQIIDR (UniProt O60488),0.00367,0.137
ACSL3_O95573_652_GTWEELCNSCEMENEVLK (UniProt O95573),-0.0606,-0.0955
ADPGK_Q9BRR6_470_EGISFHFTPVLVCK (UniProt Q9BRR6),0.195,-0.0414
ADAM10_O14672_435_FSLCSIR (UniProt O14672),-0.00291,0.0728
ADK_P55263_140_AAEAHVDAHYYEQNEQPTGTCAACITGDNR (UniProt P55263),0.165,0.0322
ADNP_Q9H2P0_223_EESSIHCK (UniProt Q9H2P0),0.196,0.129
ADNP_Q9H2P0_452_ICTICNELFPENVYSVHFEK (UniProt Q9H2P0),0.0857,-0.204
ADSL_P30566_98+99_HDVMAHVHTFGHCCPK (UniProt P30566),-0.126,-0.119
ADRM1_Q16186_121_TDQDEEHCR (UniProt Q16186),-0.0674,-0.0473
ADGRL3_Q9HAR2_36_RELSCESYPIELR (UniProt Q9HAR2),0.0299,-0.0901
ADAT3_Q96EY9_249_GTYDFRPFPACSFAPAAAPQAVR (UniProt Q96EY9),0.0397,0.286
ACOT9_Q9Y305_194_MQMFQLHGDEFCPVLDATFVMVAR (UniProt Q9Y305),-0.0142,-0.131
ADNP2_Q6IQ32_74_TKPYCCGLCK (UniProt Q6IQ32),-0.0867,0.0505
ACSL3_O95573_85_SVNSLDGLASVLYPGCDTLDK (UniProt O95573),0.108,0.0746
ADK_P55263_160_SLIANLAAANCYK (UniProt P55263),-0.0721,-0.0931
ACSL4_O60488_420_GYDAPLCNLLLFKK (UniProt O60488),-0.314,-0.314
ADGRL2_O95490_807_TMMGYWSTQGCK (UniProt O95490),0.0591,0.0285
ACTR3_P61158_394_YAVWFGGSMLASTPEFYQVCHTK (UniProt P61158),0.0158,0.15
ADPGK_Q9BRR6_415_VAGTQACATETIDTSR (UniProt Q9BRR6),0.074,-0.0384
ADRM1_Q16186_88_RVPQCPSGR (UniProt Q16186),0.0354,0.0908
ACSF2_Q96CM8_122_AASGLLSIGLCK (UniProt Q96CM8),0.0703,-0.094

Target,probe-labelled cysteine peptide fold change (10 µM),probe-labelled cysteine peptide fold change (50 µM)
ADAM17_P78536_184_VCGYLK (UniProt P78536),-0.00556,0.0291
AFG3L2_Q9Y4W6_525_KLASLTPGFSGADVANVCNEAALIAAR (UniProt Q9Y4W6),-0.0829,-0.0803
ADSL_P30566_99_HDVMAHVHTFGHCCPK (UniProt P30566),-0.0906,-0.0282
ADRM1_Q16186_60_GLVYIQQTDDSLIHFCWK (UniProt Q16186),-0.0188,-0.0557
ADGRL2_O95490_136_YLEVQYECVPYIFVCPGTLK (UniProt O95490),0.101,0.0273
ADCY9_O60503_1204_MDTTGVECR (UniProt O60503),0.0935,-0.00952
ACTN4_O43707_495_CQKICDQWDALGSLTHSRR (UniProt O43707),-0.106,-0.122
ACSF3_Q4G176_139_KHPAAQLEYVICDSQSSVVLASQEYLELLSPVVR (UniProt Q4G176),0.145,-0.0517
ACTR2_P61160_11_VVVCDNGTGFVK (UniProt P61160),0.0257,-0.158
ACSL4_O60488_420_GYDAPLCNLLLFK (UniProt O60488),-0.0473,0.0577
ADH5_P11766_170+174_VCLLGCGISTGYGAAVNTAK (UniProt P11766),0.222,0.114
ACOT7_O00154_100_CVAALAR (UniProt O00154),0.00793,0.0177
ACTR3_P61158_235_YSYVCPDLVK (UniProt P61158),0.00715,-0.0759
ADAR_P55265_304_ICDYLFNVSDSSALNLAK (UniProt P55265),-0.131,-0.238
ACSL4_O60488_552+564_WFCTGDIGEFHPDGCLQIIDR (UniProt O60488),0.116,0.0145
AGA_P20933_179_YCGPYKPPGILK (UniProt P20933),-0.0327,-0.0937
ACSS1_Q9NUB1_422_TLGSVGEPINCEAWEWLHR (UniProt Q9NUB1),-0.333,-0.348
AGFG1_P52594_89_HGNEVCK (UniProt P52594),0.0105,0.0833
ACSF2_Q96CM8_77_TVGQCLETTAQR (UniProt Q96CM8),0.00395,-0.106
AGGF1_Q8N302_494_CDPYVLEHGDEVK (UniProt Q8N302),0.0808,0.0697
ADA_P00813_262_QENMHFEICPWSSYLTGAWKPDTEHAVIR (UniProt P00813),-0.00691,-0.138
ADNP_Q9H2P0_226_CLFMPK (UniProt Q9H2P0),0.25,0.0186
ADAR_P55265_851_CFNTLTNSFQPSLLGR (UniProt P55265),-0.0403,0.114
ACY1_Q03154_116_CVSIQYLEAVRR (UniProt Q03154),-0.266,-0.188
ACOX1_Q15067_392_AFTSWTANTGIEACR (UniProt Q15067),-0.0794,0.0502
ACTN4_O43707_499_ICDQWDALGSLTHSR (UniProt O43707),0.134,0.0841
